This test is described as follows: qHTS Assay to Find Inhibitors of Chronic Active B-Cell Receptor Signaling. The following applies: ABC-DLBCL IkBa-CBG/CBR reporter, luminescence ratio (green luciferase fused to IkBa over red control in TMD8 lymphoma cells), 4 h. In outline: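 Doxycycline induced both beetle luciferases in TMD8 lymphoma cells; IKK-driven degradation limits the IkappaBalpha-fused green signal, while red luminescence normalises for cell number and nonspecific effects. Compounds tested up to 46 uM, 4 hrs.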
For orientation: qHTS replaces the single test concentration by a dilution series.

Where [1] appears, read: measured here: CBR red luminescence, cell number.
Where [2] appears, read: measured here: IkBa-CBG green luminescence.

The other results are listed elsewhere or left out. The main result of the screen is listed elsewhere. These columns were measured beside it and carry no call. The list favours compounds with an active or inconclusive main result. Words in brackets tell the shape of the fitted curve; partial curves, single points and poor fits give uncertain potencies.

As a reminder, the AC50 is the midpoint of the concentration-response curve, whichever way the signal moves. As for `O=C(NC(CO)Cc1ccccc1)c1ccccc1` (stereo unspecified), the AC50 under setting [1] is 29.1 µM [falling, single point].
The same measure, in the same setting: under `COc1ccc(C(=O)OCC(=O)N2CCCCC2)cc1[N+](=O)[O-]` stands 10 µM [falling, partial curve].
Consider `CC(C)CNC(=O)COC(=O)C1c2ccccc2Oc2ccccc21`, for which the AC50 was 3.16 µM [rising, partial curve] under setting [1] and 3.16 µM [falling, single point] under setting [2].
For the compound `Cc1ccc2nc(N(CCCN(C)C)C(=O)c3ccco3)sc2c1`, the AC50 under setting [1] is 31.6 µM [falling, single point].
The same measure, in the same setting: the figure for `CN(C)c1ccc(CNC(=O)C2CCN(S(=O)(=O)c3ccc4c(c3)CCCC(=O)N4)CC2)cc1` is 5.62 µM [rising, full curve, poor fit].
Same read-out and setting: under `COc1ccccc1/C=C/c1nc2ccc(OC(C)=O)cc2c(=O)o1` stands 0.631 µM [falling, full curve, poor fit]; under `CC(C)(C)C(=O)Nc1ccc(C(=O)CN2C(=O)NC3(CCOc4ccccc43)C2=O)cc1` (stereo unspecified), 11.6 µM [rising, partial curve, poor fit]; under `O=C1C(=O)c2ccccc2C(O)=C1CCCCl`, 22.4 µM [falling, single point].
As to `O/N=C1/C2C3CC4C5C3C1C5C1(OCCO1)C42` (stereo unspecified), the AC50 under setting [1] was 35.5 µM [falling, single point].
Regarding `O=c1[nH]n2c(=O)c3c([nH]c2c1N=Nc1cccc(Cl)c1)CCC3`, the AC50 under setting [1] was 16.4 µM [falling, single point].
The same measure, in the same setting: under `C=CC(O)(C#CCN(CC)CC)c1ccccc1` (stereo unspecified) stands 2.31 µM [rising, single point]; under `C=CCc1cc(Cl)ccc1OCCOCCNC(C)(C)C`, 12.6 µM [falling, partial curve, poor fit].
Turning to `CCC(C)NC(=O)c1ccc(C2SCC(=O)N2Cc2ccccc2)cc1` (stereo unspecified), the AC50 under setting [2] was 12.6 µM [rising, partial curve, poor fit].
Turning to `O=C(CSc1nc2ncccc2[nH]1)c1ccc2c(c1)OCO2`, the AC50 under setting [1] is 14.1 µM [falling, single point].
On the same count and under the same terms, under `COc1ccc(C2CC(C(F)(F)F)n3nc(C(=O)NCc4c(C)nn(C)c4C)c(Cl)c3N2)cc1` (stereo unspecified) stands 29.1 µM [falling, single point]; under `O=C(Cn1cnc2ccccc21)Nc1ccc(F)c(F)c1`, 12.6 µM [falling, partial curve].
Still for that read-out and setting: under `O=C(/C=C/c1ccc[nH]1)c1ccc(F)cc1` stands 35.5 µM [falling, single point]; under `COc1ccccc1NC(=O)CCc1nc2sc3c(c2c(=O)[nH]1)CCCC3`, 16.4 µM [falling, single point]; under `CCN(CC)C(=O)c1cn(CC)c(=O)c2cc(OC)c(OC)cc12`, 0.517 µM [rising, full curve, poor fit].
Same read-out and setting: under `COc1cccc(-c2nc(CS(=O)(=O)CC(=O)NCc3ccc4c(c3)OCO4)c(C)o2)c1` stands 20 µM [falling, partial curve, poor fit]; under `N#Cc1ccc(/C=C/C(=O)c2ccc3c(c2)OCO3)cc1`, 6.31 µM [falling, full curve, poor fit].
With `COc1ccc2c(CC(=O)Nc3ccc(OC)c(S(=O)(=O)N4CCOCC4)c3)coc2c1`, the AC50 under setting [1] was 16.4 µM [rising, partial curve, poor fit].
On to `CC1CCC/C(=N\Nc2ccc(Cl)c(C(=O)O)c2)C1` (stereo unspecified), for which the AC50 under setting [1] was 2.06 µM [falling, full curve].
With `CC1CCCCN1S(=O)(=O)c1ccccc1[N+](=O)[O-]` (stereo unspecified), the AC50 under setting [1] was 18.4 µM [falling, single point] and the AC50 under setting [2] was 29.1 µM [rising, partial curve, poor fit].
On to `O=C(Nc1cccnc1Cl)C1=NN(c2ccccc2)C(=O)CC1`, for which, under setting [1], the AC50 is 3.55 µM [rising, partial curve, poor fit].
Same read-out and setting: the figure for `C/C(=N\NC(=O)c1ccc2c(c1)OCO2)c1ccc(C(=O)O)s1` is 2.51 µM [falling, full curve]; for `Cn1cc(CN2CCC(O)CC2)c(-c2ccc(Oc3ccccc3)cc2)n1` it is 0.178 µM [rising, partial curve, poor fit]; for `O=C(CSc1ncnc2ccccc12)NCCc1ccccc1` it is 17.8 µM [rising, partial curve, poor fit].
Still for that read-out and setting: the figure for `N#Cc1c(NC(=S)NC(=O)c2ccccc2)sc2c1CCC2` is 0.517 µM [rising, full curve, poor fit]; for `CCn1nc(C)c(CNC(=O)c2cc(COc3ccccc3SC)on2)c1C` it is 35.5 µM [falling, single point]; for `O=C(Nc1ccccc1C(F)(F)F)c1cc(-c2ccccc2O)on1` it is 0.058 µM [falling, full curve, poor fit].
The same measure, in the same setting: under `COc1ccc(CCNC(=O)c2cc(S(=O)(=O)N3CCC4(CC3)OCCO4)ccc2F)cc1OC` stands 12.6 µM [rising, single point].
As for `CS(=O)(=O)c1ccc2nc(NC(=O)CN3CCCCCC3)sc2c1`, the AC50 under setting [1] was 10 µM [rising, partial curve, poor fit].
Same read-out and setting: the figure for `Cc1ccc(C)c(N2C(=O)N(Cc3ccccc3C)c3ccccc3S2(=O)=O)c1` is 7.08 µM [falling, full curve, poor fit]; for `CCn1cc(C2=NC(c3ccccc3)CO2)c2ccccc21` (stereo unspecified) it is 2.91 µM [rising, partial curve, poor fit]; for `CCOc1ccccc1C1C(C(=O)Nc2ccccc2OC)=C(C)Nc2nnnn21` (stereo unspecified) it is 32.6 µM [falling, single point].
On to `COc1ccc(C#Cc2c(-c3ccccc3)n(C)c3ccccc23)cc1`, for which the AC50 under setting [1] was 0.517 µM [falling, partial curve, poor fit].
The same measure, in the same setting: under `O=C1N[C@@H](Cc2ccccc2)COC(=O)[C@H](Cc2ccc(F)cc2)C/C=C\C[C@H]1CC(=O)N(CCO)Cc1ccccc1` stands 20.6 µM [falling, partial curve, poor fit]; under `C[C@H]1CN([C@@H](C)CO)C(=O)c2cccc(NC(=O)Nc3ccc(C(F)(F)F)cc3)c2O[C@@H]1CN(C)S(=O)(=O)c1ccc(Cl)cc1`, 20.6 µM [falling, partial curve].
`O=C(Nc1ccc(N2CCN(c3ncccc3C(F)(F)F)CC2)nc1)c1cccs1`: the AC50 under setting [1] is 35.5 µM [falling, single point] and the AC50 under setting [2] was 35.5 µM [rising, partial curve, poor fit].
Turning to `CCOc1nnnc2c1sc1nc(N3CCOCC3)c3c(c12)CCCC3`, the AC50 under setting [1] was 32.6 µM [falling, single point].
For `O=C(c1cc(C(=O)N2CCOCC2)c2nc3ccccc3n2c1)c1ccccc1O`, the AC50 under setting [1] was 7.08 µM [rising, partial curve, poor fit].
On the same count and under the same terms, under `O=C(COc1cccc(Br)c1)Nc1ccc(N2CCOCC2)cc1N1CCOCC1` stands 25.9 µM [rising, single point].
Same read-out and setting: under `COCCN=C1N[C@@H](c2cccc(C(F)(F)F)c2)C(C(=O)OC)=C(C)N1Cc1ccccc1` stands 35.5 µM [falling, single point]; under `CN(C)c1cccc(C(=O)NCc2ccccc2Cl)c1`, 20 µM [falling, partial curve, poor fit]; under `COc1ccc(-c2cc(C(=O)N3CCCCC3)no2)cc1OC`, 1.41 µM [rising, partial curve].
As for `COc1ccc2cc3c(N)nn(C(=O)Cc4ccccc4OC)c3nc2c1`, the AC50 under setting [2] was 16.4 µM [rising, partial curve, poor fit].
Take `O=C(NCc1ccco1)C1CC(c2cccc([N+](=O)[O-])c2)=NO1` (stereo unspecified): the AC50 under setting [1] was 14.1 µM [falling, single point].
Still for that read-out and setting: under `Cc1ccc(C(=O)NCC(=O)N(C)Cc2cccc(F)c2)s1` stands 29.1 µM [falling, single point]; under `O=C(N/N=C/c1ccc(OC(=O)c2cccs2)cc1)c1ccc(F)cc1`, 22.4 µM [falling, single point]; under `COC(=O)c1ccc(NC(=O)Nc2ccccc2C)cc1`, 2.51 µM [falling, partial curve, poor fit].
In the case of `COc1ccc(NC(=O)c2nc(C)c(C3(C)CC(c4ccccc4)=NO3)s2)cc1` (stereo unspecified), the AC50 was 8.91 µM [rising, partial curve] under setting [1] and 20 µM [falling, single point] under setting [2].
With `COc1ccc(-c2nc(C)ncc2-c2ccc(Cl)cc2)c(O)c1`, the AC50 under setting [1] is 14.1 µM [falling, single point].
Still for that read-out and setting: the figure for `C(=N\N1CCN(c2ccccc2)CC1)/c1ccccc1` is 12.6 µM [rising, partial curve, poor fit]; for `CCCCOc1ccc(-c2nnc(-c3ccco3)o2)cc1` it is 11.2 µM [rising, partial curve, poor fit]; for `Cc1c(CCC(=O)O)c(=O)n2c([nH]c3ccccc32)c1C#N` it is 0.103 µM [falling, full curve].
On the same count and under the same terms, the figure for `Cc1cc(C)cc(NC(=O)C2CCCN(c3nccc(C)n3)C2)c1` (stereo unspecified) is 23.1 µM [falling, partial curve, poor fit]; for `O=C1C=C(c2ccc3c(c2)oc2ccccc23)C[C@@H](c2ccc3c(c2)OCO3)C1` it is 0.651 µM [rising, full curve, poor fit].
On the same count and under the same terms, under `COc1ccc(CCNC(=O)CCCCCN2C(=O)[C@@H]3Cc4ccccc4CN3C2=O)cc1OC` stands 2.82 µM [falling, partial curve, poor fit].
As to `Cc1ccc(NC(=O)C2CCCCC2)cc1C`, under setting [1], the AC50 was 18.4 µM [rising, partial curve, poor fit].
The same measure, in the same setting: the figure for `CCOC(=O)c1cc2cc3ccccc3cc2oc1=O` is 0.562 µM [rising, full curve].
For `O=C(N/N=C/c1ccccc1)c1cc(=O)[nH]c2ccccc12`, under setting [1], the AC50 is 9.2 µM [rising, partial curve].
